PubChem BioAssay AID1224828 – NIAID | 2016

- Purpose: 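Find genes required for NF-kappaB p65 moving into the nucleus after LPS in mouse macrophages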 (primary screen)
- Cell system: mouse RAW264.7 G9 macrophage reporter cells (GFP-p65, Tnf promoter-mCherry)
- Reagent: siRNA pool against mouse genes, 100 nM
- Duration: 2 days siRNA transfection, then 40 min LPS before fixation
- Conditions: LPS (Salmonella minnesota R595) at 10 ng/ml
- Measurement: 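Microscopy ratio of nuclear to perinuclear-ring GFP-p65 signal, scaled to the plate median; gene score is the average of two replicate robust z-scores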
- Scale: p65 translocation robust z-score: higher = more nuclear NF-kappaB p65 after LPS than the plate median; nuclear/cytoplasmic p65 ratio: higher = more nuclear NF-kappaB p65
- Rule for the call: 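Active if robust z is above 3.3 (negative regulators) or below -1.56, the Tlr4 control median (positive regulators); activity score 50 or more; control wells not called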
- Calls: active = hit (p65 shift raised or lowered); inactive = no clear change
Here is an unselected part of about 17,000 reagents. Of all reagents, 762 (4.5%) were called active. 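Active calls include both raised and lowered p65 entry, mostly lowered; wells with fewer than 50 cells lack a z-score.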 Raw values vary from plate to plate and are shown uncorrected. A number with no mark means an inactive call. Reagent sequences are not shown.

Gene | p65 translocation robust z-score | nuclear/cytoplasmic p65 ratio, rep 1 | nuclear/cytoplasmic p65 ratio, rep 2 | low cell count flag
Pirt | – | 1.39 | 1.16 | fewer than 50 cells per well; well left out of scoring
Cdh24 | 0.32 | 1.58 | 1.91 | enough cells to score
Plxnb2 | – | 1.18 | 1.09 | fewer than 50 cells per well; well left out of scoring
Il10 | 0.78 | 1.49 | 1.52 | enough cells to score
Nxt2 | 0.42 | 1.33 | 1.61 | enough cells to score
Itgb1bp1 | 0.48 | 1.75 | 1.44 | enough cells to score
Selp | 0.79 | 1.62 | 1.72 | enough cells to score
Irak4 | 0.5 | 1.61 | 1.39 | enough cells to score
Or5h17 | 0.49 | 1.68 | 1.44 | enough cells to score
Iars2 | – | 1.38 | 1.36 | fewer than 50 cells per well; well left out of scoring
Cbx5 | 0.2 | 1.54 | 1.36 | enough cells to score
Or1ab2 | 0.47 | 1.68 | 1.33 | enough cells to score

Laid out differently: results already given.
Cdh24 — p65 translocation robust z-score: 0.32; nuclear/cytoplasmic p65 ratio, rep 1: 1.58; nuclear/cytoplasmic p65 ratio, rep 2: 1.91; low cell count flag: enough cells to score
Plxnb2 — nuclear/cytoplasmic p65 ratio, rep 1: 1.18; nuclear/cytoplasmic p65 ratio, rep 2: 1.09; low cell count flag: fewer than 50 cells per well; well left out of scoring
Il10 — p65 translocation robust z-score: 0.78; nuclear/cytoplasmic p65 ratio, rep 1: 1.49; nuclear/cytoplasmic p65 ratio, rep 2: 1.52; low cell count flag: enough cells to score

The list goes on:
Gene | p65 translocation robust z-score | nuclear/cytoplasmic p65 ratio, rep 1 | nuclear/cytoplasmic p65 ratio, rep 2 | low cell count flag
Lcn10 | -0.17 | 1.4 | 1.53 | enough cells to score
Cplx1 | -1.52 | 1.38 | 1.5 | enough cells to score
Keap1 | – | 1.57 | 1.82 | fewer than 50 cells per well; well left out of scoring
Macroh2a2 | -1.04 | 1.27 | 1.26 | enough cells to score
Tm9sf2 | -0.18 | 1.34 | 1.19 | enough cells to score
Fpr-rs3 | 1.62 | 1.85 | 1.67 | enough cells to score
Mt3 | -0.25 | 1.43 | 1.29 | enough cells to score
Serpinb8 | – | 1.28 | 1.08 | fewer than 50 cells per well; well left out of scoring
Cpeb3 | 0.05 | 1.73 | 1.63 | enough cells to score
Or6z6 | – | 1.44 | 1.11 | fewer than 50 cells per well; well left out of scoring
Adam1a | 0.98 | 1.74 | 1.85 | enough cells to score
Map1lc3a | – | 1.2 | 1.03 | fewer than 50 cells per well; well left out of scoring
